Laboratory results published in patent US7115623B2, “PDE IV inhibitors” (Aska Pharmaceuticals Co., Ltd., priority 2001, dated 2006).
Some of these results come from one statement about several compounds together.

System: Male Marshall ferrets
Assay: Emetic action
Assay type: in vivo
Conditions: oral, observed within 12 hours
Protocol: Male Marshall ferrets (each group consisting of 3 animals) as used herein fasted overnight. On the next day, a suspension of each test compound in 0.5% CMC—Na solution was administered orally to the animals. […] Next, each maximum tolerance dose against emesis was obtained. SB207499 was used for the reference compound in this assay.

Row | SMILES | Dose eliciting emetogenic potentials relative to asthmatic response-inhibitory ED50 [times]
1 | Nc1cccc(-n2c(=O)c(CCCc3ccncc3)cc3cccnc32)c1 [Example No. 7, 1-(3-Aminophenyl)-3-[3-(pyridin-4-yl)propyl]-1,8-naphthyridin-2(1H)-one] | ≥ 10
2 | Nc1cccc(-n2c(=O)c(CCCc3cc[n+]([O-])cc3)cc3cccnc32)c1 [Example No. 8, 1-(3-Aminophenyl)-3-[3-(1-oxypyridin-4-yl)propyl]-1,8-naphthyridin-2(1H)-one] | ≥ 10
